Test results reported in publication PMC7528018, “Structure of the TFIIIC subcomplex τA provides insights into RNA polymerase III pre-initiation complex formation” (Nature Communications, 2020).
These are yes or no findings as the source states them, for the method shown. Some results given as binding are weak or reduced against the parent protein; the word gives no strength.

T1: τ95 (subunit of τA) (S. cerevisiae) (UniProt P32367)
T1 sequence: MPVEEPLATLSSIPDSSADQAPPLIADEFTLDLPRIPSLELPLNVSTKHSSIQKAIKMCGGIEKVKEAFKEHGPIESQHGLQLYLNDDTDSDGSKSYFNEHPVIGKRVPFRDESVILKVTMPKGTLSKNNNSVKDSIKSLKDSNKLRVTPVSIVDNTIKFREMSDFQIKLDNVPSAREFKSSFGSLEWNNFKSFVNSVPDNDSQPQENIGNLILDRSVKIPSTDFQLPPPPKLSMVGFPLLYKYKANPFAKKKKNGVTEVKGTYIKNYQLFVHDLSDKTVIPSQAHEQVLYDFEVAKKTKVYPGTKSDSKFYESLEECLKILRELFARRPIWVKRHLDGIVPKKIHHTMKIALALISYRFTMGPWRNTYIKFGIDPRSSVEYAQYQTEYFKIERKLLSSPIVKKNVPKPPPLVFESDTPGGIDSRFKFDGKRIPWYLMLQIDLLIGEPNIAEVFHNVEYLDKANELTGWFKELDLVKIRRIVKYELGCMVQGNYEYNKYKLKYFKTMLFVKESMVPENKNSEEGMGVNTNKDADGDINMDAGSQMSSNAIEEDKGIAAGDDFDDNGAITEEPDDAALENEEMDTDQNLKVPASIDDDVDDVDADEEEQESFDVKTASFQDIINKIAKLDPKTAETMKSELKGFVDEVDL

T2: τ131 (subunit of τA) (S. cerevisiae) (UniProt P33339)
T2 sequence: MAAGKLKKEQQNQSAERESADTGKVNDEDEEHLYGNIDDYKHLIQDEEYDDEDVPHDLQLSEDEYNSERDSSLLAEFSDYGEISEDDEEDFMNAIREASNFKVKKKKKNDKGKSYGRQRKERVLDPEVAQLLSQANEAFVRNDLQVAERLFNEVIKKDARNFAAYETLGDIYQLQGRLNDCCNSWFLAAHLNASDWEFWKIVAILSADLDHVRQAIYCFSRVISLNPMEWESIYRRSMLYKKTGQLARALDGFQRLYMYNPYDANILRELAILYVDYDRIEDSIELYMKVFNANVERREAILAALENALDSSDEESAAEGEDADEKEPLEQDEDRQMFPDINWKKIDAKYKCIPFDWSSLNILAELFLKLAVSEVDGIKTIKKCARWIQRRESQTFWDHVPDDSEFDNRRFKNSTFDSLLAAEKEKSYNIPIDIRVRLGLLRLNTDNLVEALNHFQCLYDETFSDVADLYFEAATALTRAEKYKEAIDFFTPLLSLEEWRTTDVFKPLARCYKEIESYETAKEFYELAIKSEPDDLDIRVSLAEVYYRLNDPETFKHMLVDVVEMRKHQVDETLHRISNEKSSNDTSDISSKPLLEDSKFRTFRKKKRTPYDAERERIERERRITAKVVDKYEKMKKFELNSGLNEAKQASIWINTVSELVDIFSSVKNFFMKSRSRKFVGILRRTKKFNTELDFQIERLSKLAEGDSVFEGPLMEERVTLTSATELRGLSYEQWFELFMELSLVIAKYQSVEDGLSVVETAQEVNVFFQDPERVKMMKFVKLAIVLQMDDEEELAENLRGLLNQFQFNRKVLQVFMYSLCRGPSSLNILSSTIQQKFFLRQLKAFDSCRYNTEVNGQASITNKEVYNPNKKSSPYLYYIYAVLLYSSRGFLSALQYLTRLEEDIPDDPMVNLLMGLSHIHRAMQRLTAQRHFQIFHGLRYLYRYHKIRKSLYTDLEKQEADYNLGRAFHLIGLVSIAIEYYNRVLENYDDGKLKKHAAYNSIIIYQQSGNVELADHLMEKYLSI


Tests used:
[1] = molecular target: T1, τ95 (subunit of τA) (S. cerevisiae); assay: cryo-EM structure; τA at 3.1 Å; sample of τA, His_upstream_Abox DNA, Brf1–TBP and Bdp1 at 75 mM NaCl, 4 mM CHAPSO added before freezing; only τA seen in the density; both purified
[2] = molecular target: T2, τ131 (subunit of τA) (S. cerevisiae); assay: as above

binding [1] | binding [2] | Binder
binds | binds | τ55 (subunit of τA) (protein, UniProt Q12415 1-435) MVVNTIYIARHGYRSNWLPEGPYPDPLTGIDSDVPLAEHGVQQAKELAHYLLSLDNQPEAAFASPFYRCLETVQPIAKLLEIPVYLERGIGEWYRPDRKPVIPVPAGYEILSKFFPGVISQEWDSTLTPNEKGETEQEMYMRFKKFWPLFIERVEKEYPNVECILLVTHAASKIALGMSLLGYDNPRMSLNENGDKIRSGSCSLDKYEILKKSYDTIDETDDQTSFTYIPFSDRKWVLTMNGNTEFLSSGEEMNWNFDCVAEAGSDADIKKRQMTKKTSSPIPEADDQTEVETVYISVDIPSGNYKERTEIAKSAILQYSGLETDAPLFRIGNRLYEGSWERLVGTELAFPNAAHVHKKTAGLLSPTEENETTNAGQSKGSSTANDPNIQIQEEDVGLPDSTNTSRDHTGDKEEVQSEKIYRIKERIVLSNVRPM
– | binds | τ95 (subunit of τA) (protein, UniProt P32367 1-649) MPVEEPLATLSSIPDSSADQAPPLIADEFTLDLPRIPSLELPLNVSTKHSSIQKAIKMCGGIEKVKEAFKEHGPIESQHGLQLYLNDDTDSDGSKSYFNEHPVIGKRVPFRDESVILKVTMPKGTLSKNNNSVKDSIKSLKDSNKLRVTPVSIVDNTIKFREMSDFQIKLDNVPSAREFKSSFGSLEWNNFKSFVNSVPDNDSQPQENIGNLILDRSVKIPSTDFQLPPPPKLSMVGFPLLYKYKANPFAKKKKNGVTEVKGTYIKNYQLFVHDLSDKTVIPSQAHEQVLYDFEVAKKTKVYPGTKSDSKFYESLEECLKILRELFARRPIWVKRHLDGIVPKKIHHTMKIALALISYRFTMGPWRNTYIKFGIDPRSSVEYAQYQTEYFKIERKLLSSPIVKKNVPKPPPLVFESDTPGGIDSRFKFDGKRIPWYLMLQIDLLIGEPNIAEVFHNVEYLDKANELTGWFKELDLVKIRRIVKYELGCMVQGNYEYNKYKLKYFKTMLFVKESMVPENKNSEEGMGVNTNKDADGDINMDAGSQMSSNAIEEDKGIAAGDDFDDNGAITEEPDDAALENEEMDTDQNLKVPASIDDDVDDVDADEEEQESFDVKTASFQDIINKIAKLDPKTAETMKSELKGFVDEVDL
